Laboratory results taken from patent publication US20250101063A1, “POLYPEPTIDE COMPOUND AND USE THEREOF IN TREATMENT OF ENTERITIS” (Sichuan Gooddoctor Panxi Pharmaceutical Co., Ltd., priority 2022, published 2025).
Some results were stated once for a whole list of compounds, not compound by compound. Where no end group is shown, it is not given here. [ ]: non-standard residue; d: D form.

Tested on: zebrafish model of intestinal mucosal injury
Assay: Efficacy in relieving colitis: intestinal lumen area in TNBS-treated zebrafish
Assay type: in vivo
Conditions: 1000 μg/mL; summary of Tables 4 and 5
Protocol: Experimental animals: Wild-type AB strain zebrafishes, bred by natural pair mating. Zebrafishes aged 3 days post fertilization (3 dpf). Zebrafishes were kept in fish farming water at 28° C. (water quality: 200 mg of instant sea salt in each 1L of reverse osmosis water, with the conductivity of 450-550 μS/cm; pH of 6.5-8.5; and hardness of 50-100 mg/L CaCO3), the experimental animal use license number is: SYXK (Zhe) 2012-0171, and the breeding management met the requirements of the international AAALAC certification (certification number: 001458).
(1) Grouping: Polypeptide group: prepared into a stock solution of 20.0 mg/mL with ultrapure water and stored at −20° C.
Positive control group: prednisone, as white powder, with batch number C10016501, Shanghai Macklin Biochemical Technology Co., Ltd., stored at 4° C.; prepared into a 15.0 mg/mL stock solution with DMSO, and stored in aliquots at −20° C.
Normal control group and model control group.
(2) Experimental method: 3 dpf wild-type AB strain zebrafishes were randomly selected and placed in a 6-well plate, with 30 zebrafishes in each well (experimental group). Except for the normal control group, all other experimental groups were given TNBS in water to establish the zebrafish model of intestinal mucosal injury. After 2 days of treatment at 28° C., TNBS was removed, and polypeptide compound in water (at concentrations shown in Table 4) was given respectively, and for the positive control, prednisone was 15.0 μg/mL. A normal control group (healthy group) and a model control group (intestinal mucosal injury group) were set up at the same time. The capacity of each well (experimental group) was 3 mL. After 2 days of treatment at 28° C., 10 zebrafishes were randomly selected from each experimental group and photographed under a dissecting microscope. NIS-Elements D 3.20 advanced image processing software was used to analyze and collect data, and the intestinal lumen area of the zebrafish was analyzed. The statistical analysis results of this indicator were used to evaluate the efficacy of the samples in relieving colitis. The statistics results were expressed as mean±SE. SPSS26.0 software was used for statistical analysis, and p<0.05 indicates statistically significant difference.
The concentration gradient of the test substances set in this experimental system was 250 μg/mL, 500 μg/mL, and 1000 μg/mL. […] When the concentration of the test substance was further increased for intervention, the death phenomenon of zebrafishes was found in the group; therefore, in the subsequent rounds of activity evaluation, each test polypeptide compound was uniformly administered at 1000 μg/mL for intervention.

Substance	Effect of alleviating colitis, manifested by relieving intestinal lumen dilatation (in words)
KEPVPQAKPRK[dV]AAQ [Compound 72]	significant effect of alleviating colitis
K[dE]PVPQAKPRKVAAQ [Compound 62]	significant effect of alleviating colitis
PVPQAKPR [Compound 59]	certain effect of alleviating intestinal lumen dilatation
EGVPQAK [Compound 76]	certain effect of alleviating intestinal lumen dilatation
Ala-Lys-Pro-Arg (AKPR; printed: Ala-Lys-Pro-Arg) [Compound 11]	certain effect of alleviating intestinal lumen dilatation
Lys-Val-Ala-Ala (KVAA; printed: Lys-Val-Ala-Ala) [Compound 16]	certain effect of alleviating intestinal lumen dilatation
Lys-Glu-Pro-Val-Pro (KEPVP; printed: Lys-Glu-Pro-Val-Pro) [Compound 85]	significant effect of alleviating colitis
KEPVPQAKPRAVAAQ [Compound 28]	certain effect of alleviating intestinal lumen dilatation
KEPVPQAKGRKVAAQ [Compound 33]	certain effect of alleviating intestinal lumen dilatation
KEPVP[dQ]AKPRKVAAQ [Compound 66]	significant effect of alleviating colitis
KEPVPQAKP[dR]KVAAQ [Compound 70]	significant effect of alleviating colitis
GPETAFLREPVPQAK [Compound 96]	significant effect of alleviating colitis
Gln-Ala-Lys-Pro (QAKP; printed: Gln-Ala-Lys-Pro) [Compound 17]	certain effect of alleviating intestinal lumen dilatation
EPVPQA[dK] [Compound 84]	certain effect of alleviating intestinal lumen dilatation
KEPVPQA[dK]PRKVAAQ [Compound 68]	significant effect of alleviating colitis
[dE]PVPQAK [Compound 78]	certain effect of alleviating intestinal lumen dilatation
KEPVPQAKPRKVAAN [Compound 104]	significant effect of alleviating colitis
EAVPQAK [Compound 53]	significant effect of alleviating colitis
EPVAQAK [Compound 54]	significant effect of alleviating colitis
KEPVPQAKPRKVAAA [Compound 30]	certain effect of alleviating intestinal lumen dilatation
Val-Ala-Ala-Gln (VAAQ; printed: Val-Ala-Ala-Gln) [Compound 8]	certain effect of alleviating intestinal lumen dilatation
EPVPQAKVPY [Compound 102]	certain effect of alleviating intestinal lumen dilatation
KEPIPQAKPRKVAAQ [Compound 106]	significant effect of alleviating colitis
E[dP]VPQAK [Compound 79]	certain effect of alleviating intestinal lumen dilatation
Lys-Pro-Arg-Lys (KPRK; printed: Lys-Pro-Arg-Lys) [Compound 10]	significant effect of alleviating colitis
KEPVPQAAPRKVAAQ [Compound 24]	certain effect of alleviating intestinal lumen dilatation
KEPVAQAKPRKVAAQ [Compound 22]	certain effect of alleviating intestinal lumen dilatation
Lys-Glu-Pro-Val (KEPV; printed: Lys-Glu-Pro-Val) [Compound 7]	certain effect of alleviating intestinal lumen dilatation

Substance	Effect of alleviating colitis, manifested by relieving intestinal lumen dilatation (in words)
KEPVPQAK [Compound 4]	significant effect of alleviating colitis
RKDVYEPVPQAK [Compound 93]	significant effect of alleviating colitis
H-KEPVPQAKPRKVAAQ-OH [Compound 1]	significant effect of alleviating colitis
Pro-Gln-Ala-Lys (PQAK; printed: Pro-Gln-Ala-Lys) [Compound 14]	certain effect of alleviating intestinal lumen dilatation
EPVP[dQ]AK [Compound 82]	certain effect of alleviating intestinal lumen dilatation
KEPVPQAKARKVAAQ [Compound 26]	significant effect of alleviating colitis
RKDVYKEPVPQAKPRKVAAQ [Compound 91]	certain effect of alleviating intestinal lumen dilatation
KEPVPQAK[dP]RKVAAQ [Compound 69]	certain effect of alleviating intestinal lumen dilatation
EPV[dP]QAK [Compound 81]	certain effect of alleviating intestinal lumen dilatation
KEGVGQAKPRKVAAQ [Compound 37]	certain effect of alleviating intestinal lumen dilatation
KEPVPQAKPAKVAAQ [Compound 27]	certain effect of alleviating intestinal lumen dilatation
Glu-Pro-Val-Pro (EPVP; printed: Glu-Pro-Val-Pro) [Compound 9]	significant effect of alleviating colitis
AEPVPQAKPRKVAAQ [Compound 19]	certain effect of alleviating intestinal lumen dilatation
EPAPQAK [Compound 52]	certain effect of alleviating intestinal lumen dilatation
VPPKEPVPQAKPRKVAAQ [Compound 100]	significant effect of alleviating colitis
SSEDIKEEPVPQAK [Compound 98]	significant effect of alleviating colitis
Pro-Val-Pro-Gln (PVPQ; printed: Pro-Val-Pro-Gln) [Compound 12]	significant effect of alleviating colitis
KEPVPQ [Compound 87]	certain effect of alleviating intestinal lumen dilatation
APVPQAK [Compound 46]	certain effect of alleviating intestinal lumen dilatation
EPVPQAA [Compound 48]	significant effect of alleviating colitis
SSEDIKEKEPVPQAKPRKVAAQ [Compound 97]	significant effect of alleviating colitis
SSEDIKEPVPQ [Compound 99]	significant effect of alleviating colitis
KEPV[dP]QAKPRKVAAQ [Compound 65]	significant effect of alleviating colitis
EPVPQAK [Compound 6]	significant effect of alleviating colitis
Arg-Lys-Val-Ala (RKVA; printed: Arg-Lys-Val-Ala) [Compound 15]	significant effect of alleviating colitis
Pro-Val-Pro-Ala (PVPA; printed: Pro-Val-Pro-Ala) [Compound 42]	certain effect of alleviating intestinal lumen dilatation
KEPVPQAKPRKVAAE [Compound 103]	significant effect of alleviating colitis
